Record: PubChem BioAssay AID1259254 (NCATS, 2017)

- Test: 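Gene knock-downs that lead to re-replication, shown by excess G2 DNA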 (primary screen)
- System: human HCT116 colorectal cancer cells
- Reagent: single siRNA against human genes
- Timing: 3 days
- Measured: 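Imaged Hoechst DNA stain sorts each cell into a cycle phase by DNA amount; per plate, G2 fraction set to 0% for non-targeting and 100% for GMNN siRNA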
- Reading the numbers: G2 robust z-score and G2 cells, % of GMNN control: higher = more G2 cells, more excess DNA replication; raw share of cells in G2: higher = larger share of cells with G2 DNA content
- Call rule: 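An siRNA counts as active if its G2 robust z-score lies at least 5 MADs above the screen median; here such calls match roughly 38% of GMNN control or more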
In all, the deposit lists about 59,000 reagents; below is an unselected part. About 1,550 of them (2.6%) were called active. 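G2 share is only a proxy for re-replication; each gene was hit by three separate siRNAs, and active genes were retested.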 Raw values are not corrected between plates. The numbers tell different reagents against one gene apart. The record does not give: the amount of reagent.

gene	reagent no.	G2 robust z-score	G2 cells, % of GMNN control	raw share of cells in G2 (%)	activity call
ANKRD27	1	-0.474	-0.366	3.99	inactive
ANKRD27	2	-0.309	0.794	3.69	inactive
ANKRD27	3	-0.386	0.254	2.48	inactive
MAGEC2	1	-1.57	-8.08	0.711	inactive
MAGEC2	2	1.31	12.2	9.41	inactive
MAGEC2	3	1.11	10.8	6.76	inactive
CT47A11	1	0.129	3.87	4.98	inactive
CT47A11	2	0.0218	3.12	4.2	inactive
CT47A11	3	-0.275	1.03	3.52	inactive
HSD17B4	1	0.0305	3.18	6.89	inactive
HSD17B4	2	2.17	18.2	10.9	inactive
HSD17B4	3	-0.77	-2.45	4.15	inactive
LINC00977	1	-0.896	-3.34	2.65	inactive
LINC00977	2	1.92	16.5	8.63	inactive
LINC00977	3	0.389	5.7	5.33	inactive
MINDY4B	1	-0.289	0.936	4.13	inactive
MINDY4B	2	2.29	19.1	10.3	inactive
MINDY4B	3	0.612	7.27	5.35	inactive
BMAL1	1	-0.924	-3.53	2.06	inactive
BMAL1	2	-1.16	-5.22	2.4	inactive
BMAL1	3	-0.951	-3.72	1.76	inactive
PLCD3	1	0.038	3.23	6.35	inactive
PLCD3	2	3.07	24.5	13.8	inactive
PLCD3	3	0.935	9.54	10.1	inactive
ABTB2	1	6.28	47.2	19.8	active
ABTB2	2	-0.632	-1.48	3.5	inactive
ABTB2	3	4.35	33.6	21.4	inactive
MINDY3	1	1.78	15.5	10.9	inactive
MINDY3	2	0.76	8.32	7.94	inactive
MINDY3	3	-0.62	-1.39	2	inactive
LAD1	1	-0.637	-1.51	4.33	inactive
LAD1	2	1.3	12.1	9	inactive
LAD1	3	2	17	9.51	inactive
CALN1	1	0.502	6.5	5.09	inactive
CALN1	2	-1.58	-8.12	2.24	inactive
CALN1	3	5.8	43.8	17.4	active
AKAP8L	1	-0.317	0.739	5.82	inactive
AKAP8L	2	0.0818	3.54	6.48	inactive
AKAP8L	3	-0.542	-0.847	3.41	inactive
SBF2-AS1	1	-0.863	-3.1	2.32	inactive
SBF2-AS1	2	-0.73	-2.17	2.85	inactive
SBF2-AS1	3	0.32	5.22	5.06	inactive
MECR	1	0.0187	3.1	4.99	inactive
MECR	2	-1.14	-5.06	3.66	inactive
MECR	3	-0.652	-1.62	3.64	inactive
MAF1	1	1.56	13.9	8.74	inactive
MAF1	2	0.0728	3.48	4.49	inactive
MAF1	3	0.0799	3.53	3.48	inactive
ZNF513	1	1.88	16.2	9.22	inactive
ZNF513	2	0.899	9.29	6.29	inactive
ZNF513	3	1.45	13.2	7.74	inactive
RBM15B	1	-0.0512	2.61	4.84	inactive
RBM15B	2	-1.07	-4.57	2.67	inactive
RBM15B	3	3.71	29.1	19.3	inactive
DYNLT5	1	-1.17	-5.27	1.72	inactive
DYNLT5	2	1.68	14.8	7.91	inactive
DYNLT5	3	-0.377	0.313	2.86	inactive
OCM	1	-0.658	-1.67	2.6	inactive
OCM	2	-1.2	-5.51	1.14	inactive
OCM	3	-0.375	0.331	2.88	inactive
RGS5	1	-1.03	-4.26	3.18	inactive
RGS5	2	2.52	20.7	12.5	inactive
RGS5	3	0.57	6.98	7.71	inactive
RIC8A	1	0.764	8.34	4.9	inactive
RIC8A	2	0.652	7.55	7.87	inactive
RIC8A	3	-0.879	-3.21	3.17	inactive
SPCS1	1	3.13	25	11.9	inactive
SPCS1	2	-0.348	0.517	3.21	inactive
SPCS1	3	0.386	5.69	6.42	inactive
